Test results reported in US9125414B2, “Pyridine derivatives compounds for controlling invertebrate pests” (BASF SE, priority 2009, dated 2015).
Some results were stated once for a whole list of compounds, not compound by compound.

Legend:
Assay type in all cases: in vivo
[1] = test system: Cotton Aphid (Aphis gossypii, mixed life stages); test: Cotton aphid, method b (electrostatic spray); settings: 300 ppm; sprayed; after 5 days
[2] = test system: Vetch Aphid (Megoura viciae); test: Vetch aphid, bean leaf disks in microtiterplates; settings: test solution 2500 mg/L; leaf disks sprayed; 6 days
Description: II.4 Vetch Aphid (Megoura viciae)
The active compounds were formulated in 1:3 (vol:vol) DMSO:water with different concentrations of formulated compounds.
Bean leaf disks were placed into microtiterplates filled with […] and 2.5 ppm OPUS™ (from BASF SE, conazole). The leaf disks were sprayed with 2.5 μl of the test solution and 5 to 8 adult aphids were placed into the microtiterplates which were then closed and kept at 23±1° C. and 50±5% relative humidity under fluorescent light for 6 days. Mortality was assessed on the basis of vital, reproduced aphids. Aphid mortality and fecundity was then visually assessed.

[3] = test system: Cowpea Aphid (Aphis craccivora); test: Cowpea aphid, sprayed potted cowpea plants; settings: 300 ppm, population reduction assessed after 24, 72 and 120 hours
Description: II.3 Cowpea Aphid (Aphis craccivora)
The active compounds were formulated in 50:50 (vol:vol) acetone:water. The test solution was prepared at the day of use.
Potted cowpea plants colonized with 100-150 aphids of various stages were sprayed after the pest population had been recorded. Population reduction was assessed after 24, 72, and 120 hours.

[4] = test system: Green Peach Aphid (Myzus persicae, mixed life stages); test: Green peach aphid, method b (electrostatic spray, bell pepper); settings: 300 ppm; sprayed; after 5 days
[5] = test system: Green Peach Aphid (Myzus persicae, mixed life stages); test: Green peach aphid, method a (leaf dip, pepper plants); settings: 300 ppm; leaves dipped; after 5 days
Source text: II.2 Green Peach Aphid (Myzus persicae, Mixed Life Stages)
The active compounds were formulated in 50:50 (vol:vol) acetone:water and 100 ppm Kinetica™ (from Helena Chemical Co.) surfactant.
Pepper plants in the 2nd leaf-pair stage (variety ‘California Wonder’) were infested with approximately 40 laboratory-reared aphids by placing infested leaf sections on top of the test plants. The leaf sections were removed after 24 hr. The leaves of the intact plants were dipped into gradient solutions of the test compound and allowed to dry. Test plants were maintained under fluorescent light (24 hour photoperiod) at about 25° C. and 20-40% relative humidity. Aphid mortality on the treated plants, relative to mortality on check plants, was determined after 5 days.

[6] = test system: Green Peach Aphid (Myzus persicae); test: Green peach aphid through systemic means, artificial diet under membrane; settings: 2500 ppm; pipetted into aphid diet; 3 days
Source text: II.6 Activity Against Green Peach Aphid (Myzus persicae)
For evaluating control of green peach aphid (Myzus persicae) through systemic means the test unit consisted of 96-well-microtiter plates containing liquid artificial diet under an artificial membrane.
The compounds were formulated using a solution containing 75% v/v water and 25% v/v DMSO. Different concentrations of formulated compounds were pipetted into the aphid diet, using a custom built pipetter, at two replications. After application, 5 to 8 adult aphids were placed on the artificial membrane inside the microtiter plate wells. The aphids were then allowed to suck on the treated aphid diet and incubated at about 23+1° C. and about 50+5% relative humidity for 3 days. Aphid mortality and fecundity was then visually assessed.

[7] = test system: Boll Weevil (Anthonomus grandis); test: Boll weevil, insect diet with eggs in 24-well plates; settings: test solution 2500 mg/L; sprayed onto insect diet; 5 days
[8] = test system: Cotton Aphid (Aphis gossypii, mixed life stages); test: Cotton aphid, method a (cotyledon dip); settings: 300 ppm; cotyledons dipped; counts after 5 days
Source text: II.1 Cotton Aphid (Aphis gossypii, Mixed Life Stages)
The active compounds were formulated in 50:50 (vol:vol) acetone: water and 100 ppm Kinetica™ (from Helena Chemical Co.) surfactant.
Cotton plants at the cotyledon stage (one plant per pot) were infested by placing a heavily infested leaf from the main colony on top of each cotyledon. The aphids were allowed to transfer to the host plant overnight, and the leaf used to transfer the aphids was removed. The cotyledons were dipped in the test solution and allowed to dry. After 5 days, mortality counts were made.

[9] = test system: Green Peach Aphids (Myzus persicae); test: Hydroponic test against green peach aphids (pepper, bare roots); settings: 100 ppm; bare roots immersed; 3 days
[10] = test system: Cotton Aphids (Aphis gossypii); test: Hydroponic test against cotton aphids (cotton, bare roots); settings: 100 ppm; bare roots immersed; 3 days
[11] = test system: Brown Planthopper (Nilaparvata lugens); test: Brown planthopper, sprayed rice seedlings; settings: 500 ppm, after 72 hours

Compound | mortality in comparison with untreated controls [1] | mortality [2] | mortality in comparison with untreated controls [3] | mortality in comparison with untreated controls [5] | mortality in comparison with untreated controls [6] [%] | mortality in comparison with untreated controls [8] | further results
Cc1noc(-c2ccccc2)c1C(=O)Nc1cccnc1 [Example 11] | at least 75% |  |  |  |  |  | 
Cc1ncsc1C(=O)Nc1cccnc1 [Example 5] | at least 75% | at least 90% | at least 90% | at least 90% | 100 | at least 90% | mortality in comparison with untreated controls [4]: at least 75%; mortality (egg and larval) [7]: at least 50%
Cc1nc(C(=O)Nc2cccnc2)c(C(F)(F)F)o1 [Example 16] |  |  |  | at least 90% |  |  | 
Cc1nocc1C(=O)N(C)c1cccnc1 [Example 3] | at least 75% |  | at least 90% |  |  |  | mortality in comparison with untreated controls [4]: at least 75%; mortality in comparison with untreated controls [9]: ≥ 75%; mortality in comparison with untreated controls [10]: at least 75%
Cc1ncoc1C(=O)Nc1cccnc1 [Example 21] |  | at least 90% | at least 90% | at least 90% |  | at least 90% | 
Cc1nc(-c2ccc(C(F)(F)F)cc2)[nH]c1C(=O)Nc1cccnc1 [Example 18] |  |  |  |  |  |  | mortality (egg and larval) [7]: at least 50%
Cc1nc(C(=O)Nc2cccnc2)c[nH]1 [Example 14] |  |  | at least 90% |  |  |  | mortality (egg and larval) [7]: at least 50%
O=C(Nc1cccnc1)c1ncsc1Br [Example 1] |  |  |  |  |  |  | mortality in comparison with untreated controls [11]: at least 50%
Cc1ncsc1C(=O)N(C)c1cccnc1 [Example 7] | at least 75% |  |  |  |  |  | 
CCc1nocc1C(=O)Nc1cccnc1 [Example 8] | at least 75% |  | at least 90% |  |  |  | mortality in comparison with untreated controls [4]: at least 75%; mortality in comparison with untreated controls [9]: ≥ 75%; mortality in comparison with untreated controls [10]: at least 75%
Cc1nc(C(=O)Nc2cccnc2)c(C)o1 [Example 19] |  | at least 90% | at least 90% |  |  | at least 90% | 
Cc1nc(C)c(C(=O)Nc2cccnc2)o1 [Example 23] |  | at least 90% | at least 90% | at least 90% | 100 | at least 90% | mortality (egg and larval) [7]: at least 50%
Cc1nc(C(=O)Nc2cccnc2)co1 [Example 25] |  |  | at least 90% | at least 90% | 100 | at least 90% | 
CCc1nocc1C(=O)N(C)c1cccnc1 [Example 6] | at least 75% |  | at least 90% |  |  |  | mortality in comparison with untreated controls [4]: at least 75%; mortality in comparison with untreated controls [10]: at least 75%
O=C(Nc1cccnc1)c1cnco1 [Example 22] |  |  | at least 90% | at least 90% | 100 | at least 90% | 
Cc1nc(C)c(C(=O)Nc2cccnc2)s1 [Example 24] |  | at least 90% | at least 90% | at least 90% | 100 | at least 90% | 
Cc1nc(C(F)(F)F)c(C(=O)Nc2cccnc2)s1 [Example 17] |  | at least 90% |  | at least 90% | 100 | at least 90% | 
CN(C(=O)c1conc1C1CC1)c1cccnc1 [Example 10] | at least 75% | at least 90% | at least 90% |  | 100 |  | mortality in comparison with untreated controls [4]: at least 75%; mortality in comparison with untreated controls [9]: ≥ 75%; mortality (egg and larval) [7]: at least 50%; mortality in comparison with untreated controls [10]: at least 75%
O=C(Nc1cccnc1)c1ccns1 [Example 26] |  |  | at least 90% |  |  |  | 
Cc1ocnc1C(=O)Nc1cccnc1 [Example 20] |  | at least 90% | at least 90% |  | 100 | at least 90% | mortality in comparison with untreated controls [11]: at least 50%
O=C(Nc1cccnc1)c1ncc[nH]1 [Example 12] |  |  | at least 90% |  |  |  | 
O=C(Nc1cccnc1)c1conc1C1CC1 [Example 9] | at least 75% | at least 90% | at least 90% |  | 100 |  | mortality in comparison with untreated controls [4]: at least 75%; mortality in comparison with untreated controls [10]: at least 75%
O=C(Nc1cccnc1)c1c[nH]cn1 [Example 13] |  | at least 90% | at least 90% |  |  |  | 
Cc1nocc1C(=O)Nc1cccnc1 [Example 4] |  | at least 90% | at least 90% | at least 90% | 100 | at least 90% | mortality in comparison with untreated controls [11]: at least 50%; mortality in comparison with untreated controls [9]: ≥ 75%; mortality (egg and larval) [7]: at least 50%
